No constants are given. Whether binding was seen depends on the method and setting. Binding seen in cells or lysates may run through a third protein. Here binding means that the protein was enriched with, or labelled near, the bait; the list need not be complete. For some assays here: No binding means not detected with the bait.

Protein sequences, listed by entry. Tags and fused reporters are not part of them. Residues count along the entry.
UniProt P19491, residues 22-883: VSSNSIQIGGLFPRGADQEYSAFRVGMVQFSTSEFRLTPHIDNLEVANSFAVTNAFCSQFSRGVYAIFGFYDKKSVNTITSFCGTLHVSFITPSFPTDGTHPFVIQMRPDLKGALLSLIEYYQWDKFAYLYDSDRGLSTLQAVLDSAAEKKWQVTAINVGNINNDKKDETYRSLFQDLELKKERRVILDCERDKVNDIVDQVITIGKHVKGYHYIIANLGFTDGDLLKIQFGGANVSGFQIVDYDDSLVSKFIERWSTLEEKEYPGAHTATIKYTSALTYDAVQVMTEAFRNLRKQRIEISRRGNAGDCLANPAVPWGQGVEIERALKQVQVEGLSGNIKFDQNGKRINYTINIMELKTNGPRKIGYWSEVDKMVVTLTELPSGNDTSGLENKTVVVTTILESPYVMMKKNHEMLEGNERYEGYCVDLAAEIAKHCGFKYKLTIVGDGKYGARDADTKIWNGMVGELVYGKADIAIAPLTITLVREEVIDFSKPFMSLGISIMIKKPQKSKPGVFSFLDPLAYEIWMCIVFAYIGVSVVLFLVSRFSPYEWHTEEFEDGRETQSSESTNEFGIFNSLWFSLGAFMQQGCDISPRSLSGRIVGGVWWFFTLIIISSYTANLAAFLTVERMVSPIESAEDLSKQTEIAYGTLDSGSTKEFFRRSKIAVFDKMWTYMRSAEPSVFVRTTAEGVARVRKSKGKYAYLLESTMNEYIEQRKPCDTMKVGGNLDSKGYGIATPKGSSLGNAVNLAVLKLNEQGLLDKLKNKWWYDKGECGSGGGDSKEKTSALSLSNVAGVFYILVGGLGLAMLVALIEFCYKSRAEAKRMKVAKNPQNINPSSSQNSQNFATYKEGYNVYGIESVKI
UniProt P19490, residues 19-907: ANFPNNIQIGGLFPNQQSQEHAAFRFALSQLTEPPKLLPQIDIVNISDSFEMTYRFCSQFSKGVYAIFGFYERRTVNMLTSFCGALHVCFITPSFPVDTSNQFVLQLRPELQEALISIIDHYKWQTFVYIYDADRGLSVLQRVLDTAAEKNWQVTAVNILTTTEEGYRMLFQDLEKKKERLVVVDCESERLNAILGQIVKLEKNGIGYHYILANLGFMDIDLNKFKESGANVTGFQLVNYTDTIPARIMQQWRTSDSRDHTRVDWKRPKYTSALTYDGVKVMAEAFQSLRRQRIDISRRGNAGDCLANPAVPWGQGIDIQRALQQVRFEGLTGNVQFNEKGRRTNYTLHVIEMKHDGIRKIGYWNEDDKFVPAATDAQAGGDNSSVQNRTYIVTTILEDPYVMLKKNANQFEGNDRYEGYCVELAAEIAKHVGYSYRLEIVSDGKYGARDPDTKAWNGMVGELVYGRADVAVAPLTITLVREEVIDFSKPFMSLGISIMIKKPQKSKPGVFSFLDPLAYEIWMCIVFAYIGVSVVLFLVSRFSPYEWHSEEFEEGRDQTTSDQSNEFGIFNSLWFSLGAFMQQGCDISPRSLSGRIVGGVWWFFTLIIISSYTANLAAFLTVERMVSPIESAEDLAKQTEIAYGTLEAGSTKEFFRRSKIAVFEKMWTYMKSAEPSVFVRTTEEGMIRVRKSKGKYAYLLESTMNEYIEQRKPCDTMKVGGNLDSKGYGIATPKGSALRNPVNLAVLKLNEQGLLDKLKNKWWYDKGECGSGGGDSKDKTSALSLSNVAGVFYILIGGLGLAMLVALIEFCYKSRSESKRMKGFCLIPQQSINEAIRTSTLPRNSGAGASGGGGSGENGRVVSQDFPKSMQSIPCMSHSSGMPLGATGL
UniProt P46462: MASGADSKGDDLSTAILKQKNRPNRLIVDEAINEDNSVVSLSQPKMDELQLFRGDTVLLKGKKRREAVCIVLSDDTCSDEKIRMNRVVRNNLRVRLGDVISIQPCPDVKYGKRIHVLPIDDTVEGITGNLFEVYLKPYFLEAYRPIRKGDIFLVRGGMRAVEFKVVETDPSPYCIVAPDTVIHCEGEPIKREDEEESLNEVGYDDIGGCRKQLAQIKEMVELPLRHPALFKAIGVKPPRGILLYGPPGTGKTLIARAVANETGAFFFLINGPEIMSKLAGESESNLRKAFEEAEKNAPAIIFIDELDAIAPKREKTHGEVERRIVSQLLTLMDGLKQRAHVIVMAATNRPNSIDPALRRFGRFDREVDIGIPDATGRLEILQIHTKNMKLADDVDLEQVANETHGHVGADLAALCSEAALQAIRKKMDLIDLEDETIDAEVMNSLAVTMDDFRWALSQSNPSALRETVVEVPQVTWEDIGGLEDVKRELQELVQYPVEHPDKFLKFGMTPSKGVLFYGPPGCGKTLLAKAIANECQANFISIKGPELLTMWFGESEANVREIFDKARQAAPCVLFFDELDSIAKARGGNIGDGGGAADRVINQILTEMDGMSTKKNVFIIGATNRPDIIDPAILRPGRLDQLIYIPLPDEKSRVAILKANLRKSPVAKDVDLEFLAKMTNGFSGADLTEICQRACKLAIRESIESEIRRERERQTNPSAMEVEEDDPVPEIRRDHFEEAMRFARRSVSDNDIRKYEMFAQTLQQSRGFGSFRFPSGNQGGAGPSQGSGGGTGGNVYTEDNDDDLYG

Assay [1] has as its target GluA2 subunit of native AMPARs, endogenous (rat (endogenous in hippocampus)) (UniProt P19491). In words: affinity purification with mass spectrometry; anti-GluA1 or anti-GluA2 immunoprecipitates from adult rat hippocampal homogenates; Coomassie-stained gel, band of about 97 kDa cut out, in-gel trypsin, MALDI-TOF, MASCOT.
In assay [2] the target is GluA1 subunit of native AMPARs, endogenous (rat (endogenous in hippocampus)) (UniProt P19490). The assay is described as above.

“p97 (valonsin-containing protein), endogenous (from UniProt P46462 1-806)”: the binding entry in assay [1] is reported as “no binding”; in assay [2] it was “binds”.

The values above are taken from publication PMC6733861.
